Source: US20150197757, “OXYGEN-RESPONSIVE BACTERIAL GENE SWITCH” (Wisconsin Alumni Research Foundation, published 2015)
Numbering of substitutions follows the chain as printed. For some of these results: Negatives hold for the conditions tested. Where a protein sequence is shown, tags need not be part of it. For some of these results: A weaker result is weaker than the reference pair of the same experiment.

Experiments:
[1] = molecular target: T1, ArcA D54A (Escherichia coli) (UniProt P0A9Q1); assay: activity in cells; details: repression reduced versus wt ArcA, protein in cells, only the site is given
T1 sequence (looked up, limits assumed): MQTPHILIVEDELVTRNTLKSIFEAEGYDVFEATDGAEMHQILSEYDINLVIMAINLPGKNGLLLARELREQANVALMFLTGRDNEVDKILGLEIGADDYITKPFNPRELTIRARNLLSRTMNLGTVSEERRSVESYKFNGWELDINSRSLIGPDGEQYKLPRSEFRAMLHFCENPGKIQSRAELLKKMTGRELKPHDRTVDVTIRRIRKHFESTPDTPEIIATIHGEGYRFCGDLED

[2] = molecular target: T2, ArcA D54E (Escherichia coli) (UniProt P0A9Q1); assay: activity in cells; details: aerobic repression above wt ArcA, protein in cells, only the site is given
T2 sequence (looked up, limits assumed): T1 sequence (looked up, limits assumed) with A54E

[3] = molecular target: T3, ArcA (chromosomal) (Escherichia coli) (UniProt P0A9Q1); assay: activity in cells; details: repression abolished, anaerobic; protein in cells; variant of icdA P1 wt; only the site is given
T3 sequence (looked up, limits assumed): T1 sequence (looked up, limits assumed) with A54D

[4] = molecular target: T4, His6-ArcA-P (Escherichia coli) (UniProt P0A9Q1); assay: footprint; details: binds DR1 and DR2 but not DR3, data not shown; purified recombinant protein; protein details: N-terminal His tag, phosphorylated; label: 3' 32P (footprint)
T4 sequence (looked up, limits assumed): T1 sequence (looked up, limits assumed) with A54D

[5] = indistinguishable from wt ArcA anaerobically, variant of icdA P1 wt

Sequence	activity on this sequence ([1]; variant of icdA P1 wt)	activity on this sequence [2, 5]	activity on this sequence [3]	further results
ATGTTAATTTTTTGTTAATGATTTGTAATTGGCTTGTCAATACTACCCTATTGT (double strand) [icdA P1 5' DR4]	less active	active		
AGAGCAATTTTTTGTTAATGATTTGTAATTGGCTTGTTAATACTACCCTATTGT (double strand) [icdA P1 DR3 C->T]	less active			
AGAGCAATTTTTTCATAATGATTTGTAATTGGCTTGTCAATACTACCCTATTGT (double strand) [icdA P1 DR1 GT->CA]			not active	
AGAGCAATTTTTTGTTAATGATTTGTTATTGGCTTGTTAATACTACCCTATTGT (double strand) [icdA P1 DR2 A->T, DR3 C->T]	less active	active		
AGAGCAATTTTTTGTTAATGATTTCAAATTGGCTTGTCAATACTACCCTATTGT (double strand) [icdA P1 DR2 GT->CA]			not active	
AGAGCAATTTTTTGTTAATGATTTGTAATTGGCTTGTCAATACTACCCTATTGT (double strand) [icdA P1 wt]				binding result [4]: binds more weakly; activity on this sequence [1]: less active; activity on this sequence ([2]; repression largely eliminated anaerobically): less active
